Some of the results follow. Shown are side measurements of this screen, not its main read-out; they come without a call. The list favours compounds with an active or inconclusive main result. Words in brackets tell the shape of the fitted curve; partial curves, single points and poor fits give uncertain potencies.
Assay: qHTS Assay for Lipid Storage Modulators in Drosophila S3 Cells;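 on cell number change: cells counted by Cell Tracker Red CMTPX staining in the red channel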
Conditions: BODIPY lipid droplet fluorescence, 18-24 h; for cell number change: measured here: cell count max response, cells fed with added oleic acid
In short: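 Laser-scanning cytometry quantifies lipid droplet accumulation (500–530 nm total intensity; droplet/cell object ratio) in oleic acid-fed (400 uM added) Drosophila S3 cells treated with a concentration series. 20 uM Triacsin C defined 100% inhibition.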

[1] = measured here: lipid fluorescence (Fed channel) AC50, cells fed with added oleic acid
[2] = measured here: cell number channel AC50, cells fed with added oleic acid

In the case of `CCOC(=O)C(NC(C)=O)(Nc1cccc(F)c1)C(F)(F)F` (stereo not drawn), the AC50 [1] is reported as 2.31 µM [falling, full curve].

In the case of `COc1ccc2nc(N3CCN(C(=O)c4ccc([N+](=O)[O-])o4)CC3)sc2c1`, the AC50 [1] is reported as 1.84 µM [falling, partial curve].

For `Cn1cc(C(CO)Cc2ccccc2)c2ccccc21` (stereo not drawn), the cell number change was -24.1%, the AC50 [2] was 0.00461 µM [falling, full curve, poor fit] and the AC50 [1] was 23.1 µM [rising, single point].

For `Cc1nc(N2CCN(c3ccccc3)CC2)nc2c1C(=O)CC(C)C2` (stereo not drawn), the cell number change was 8.06% and the AC50 [1] was 0.206 µM [rising, full curve, poor fit].

In the case of `O=C1CSc2ccc(S(=O)(=O)NCc3ccc(F)cc3)cc2N1`, the AC50 [1] is reported as 6.51 µM [rising, single point].

Work on `CC(=O)c1cccc(NC(=O)c2cc(-c3ccco3)nc3ccccc23)c1` yielded a cell number change of 11.1%.

For `O=C(CSc1nc2nn(-c3ccccc3)c(=O)c-2c2n1CCCCC2)Nc1ccccc1[N+](=O)[O-]`, the AC50 [1] was 0.103 µM [falling, full curve, poor fit].

`Cc1ccsc1C(=O)NCCc1ccc(S(N)(=O)=O)cc1` showed a cell number change of 13.5%.

For `Cc1ccc(C(=O)Nc2ccc(S(=O)(=O)N3CCc4ccccc43)cc2)o1`, the cell number change was -11.8% and the AC50 [1] was 29.1 µM [rising, partial curve, poor fit].

In the case of `Cc1ccc(/C=N/NC(=O)c2ccc(N(C)S(=O)(=O)c3ccccc3)cc2)cc1`, the cell number change is reported as 10% and the AC50 [1] is reported as 6.51 µM [falling, partial curve, poor fit].

With `COc1ccc(OC)c(S(=O)(=O)N(C)CC(=O)O)c1` the cell number change was 7.83% and the AC50 [1] was 3.26 µM [rising, single point].

In the case of `O=C(Cn1cnc2c(oc3nc4c(cc32)CCCC4)c1=O)Nc1ccccc1`, the AC50 [1] is reported as 16.4 µM [rising, single point].

For `O=C(N/N=C/c1ccc(-c2cccc([N+](=O)[O-])c2)o1)[C@H]1C[C@@H]1c1ccccc1`, the cell number change was 19.9% and the AC50 [1] was 5.17 µM [rising, single point].

For `O=S(=O)(NCCCN1CCOCC1)c1ccc(Cl)s1`, the cell number change was -5.68% and the AC50 [1] was 0.082 µM [falling, full curve, poor fit].

In the case of `COC(=O)Cn1c2ccc(F)cc2c2nc(C)sc21`, the cell number change is reported as 3.13%, the AC50 [2] is reported as 0.13 µM [falling, full curve, poor fit] and the AC50 [1] is reported as 0.092 µM [falling, full curve, poor fit].

In the case of `Cc1cc(-c2ccc(C)c(S(=O)(=O)N3CC(=O)Nc4ccccc43)c2)on1`, the AC50 [1] is reported as 1.46 µM [falling, full curve].

For `CCOc1cccc(CN2CCN(CCCc3ccccc3)C(CCO)C2)c1O` (stereo not drawn), the cell number change was -14.2% and the AC50 [1] was 5.8 µM [falling, full curve].

For `CCOc1ccc(NC(=S)NNc2ccnc3cc(Cl)ccc23)cc1`, the cell number change was 90.1%, the AC50 [2] was 4.11 µM [rising, full curve, poor fit] and the AC50 [1] was 29.1 µM [rising, partial curve, poor fit].

In the case of `CCOc1ccc(S(=O)(=O)N(C)C)cc1-c1nc2c(C(C)(C)C)nn(C)c2c(=O)[nH]1`, the AC50 [2] is reported as 2.91 µM [rising, partial curve] and the AC50 [1] is reported as 0.58 µM [rising, single point].

With `NC1=NC(c2ccc(F)cc2)n2c(nc3ccccc32)N1` (stereo not drawn) the cell number change was 0.97% and the AC50 [1] was 5.8 µM [falling, single point].

In the case of `COc1ccc(OC)c2[nH]c(=O)c(CCNC(=O)COc3ccccc3)cc12`, the cell number change is reported as -18.7% and the AC50 [1] is reported as 29.1 µM [falling, single point].

Work on `Cc1ccc2ncccc2c1NC(=S)NC(=O)c1ccccc1` yielded a cell number change of 21%.

In the case of `CCOC(=O)C(C)Oc1ccc(=O)n(-c2ccccc2)n1` (stereo not drawn), the cell number change is reported as 23%.

With `CN1C(=O)CC(N2CCC(C(N)=O)(N3CCCCC3)CC2)C1=O` (stereo not drawn) the cell number change was -19.1%, the AC50 [2] was 0.0259 µM [falling, full curve, poor fit] and the AC50 [1] was 16.4 µM [falling, partial curve].

In the case of `CN1CCN(C(=S)NC(=O)c2ccccc2Br)CC1`, the cell number change is reported as -21.8% and the AC50 [1] is reported as 29.1 µM [falling, single point].

Work on `CCc1cccc(Nc2c([N+](=O)[O-])cc(C(=O)N3CC(=O)Nc4ccccc43)cc2[N+](=O)[O-])c1` yielded a cell number change of -5.63%.

For `CCCCN1c2ccccc2N(CCCO)c2cc(C)nnc21`, the cell number change was 34.4%, the AC50 [2] was 14.6 µM [rising, partial curve] and the AC50 [1] was 9.2 µM [rising, partial curve].

For `Cc1cc(=O)oc2cc(OCc3nnc(-c4ccccc4Br)o3)ccc12`, the cell number change was -10.1% and the AC50 [1] was 7.31 µM [falling, single point].

For `CC(=O)c1c(C)[nH]c(C(=O)OC(C)C(=O)Nc2cc(S(=O)(=O)N3CCCCC3)ccc2Cl)c1C` (stereo not drawn), the cell number change was -2.1% and the AC50 [1] was 2.06 µM [rising, single point].

In the case of `CSc1ccccc1OCc1cc(C(=O)N(C)C2CCCc3ccccc32)no1` (stereo not drawn), the cell number change is reported as -27.7% and the AC50 [1] is reported as 9.2 µM [falling, partial curve].

For `Cc1ccc(C(C(=O)NC(C)(C)C)N(C(=O)CCC(=O)Nc2ccccn2)c2ccccc2F)cc1` (stereo not drawn), the cell number change was -25.2%.

`Cc1cccc(N2CCN(C(=O)C3CCC(CNS(=O)(=O)c4cccs4)CC3)CC2)c1C` (stereo not drawn) showed a cell number change of -26.2%.

For `Cc1ccc(-c2csc3ncnc(SCC(=O)Nc4nnc(C)s4)c23)cc1`, the cell number change was 12.5% and the AC50 [2] was 3.26 µM [rising, single point].

With `Cc1cccc(C)c1Nc1nnc(SCC(=O)Nc2cc(S(=O)(=O)N3CCCCC3)ccc2Cl)s1` the cell number change was 2.39% and the AC50 [1] was 1.3 µM [rising, full curve, poor fit].

In the case of `CCN(CC)S(=O)(=O)c1cc(-c2nnc(-c3ccc(Br)cc3)o2)ccc1Cl`, the cell number change is reported as -9.99% and the AC50 [1] is reported as 0.517 µM [rising, full curve].

For `Cn1cccc1/C=N/n1c(-c2ccc(C(C)(C)C)cc2)n[nH]c1=S`, the cell number change was -50.5%, the AC50 [2] was 29.1 µM [falling, single point] and the AC50 [1] was 29.1 µM [falling, single point].

With `CC(C)(C)N1CC(c2nc3ccccc3n2Cc2ccccc2)CC1=O` (stereo not drawn) the AC50 [1] was 29.1 µM [rising, single point].

With `C=CCNCCOCCSc1ccc(Cl)cc1` the cell number change was 1.38% and the AC50 [1] was 2.06 µM [rising, single point].

Source: PubChem BioAssay AID2685 (National Center for Advancing Translational Sciences (NCATS), 2010)
